The whole screen tested about 53,000 sequences, of which about 3,700 (7%) were called active.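 How the source made its calls: active means gene knockdowns whose robust z-score for IL-1 alpha signal is at least 2 or at most -2, so actives lie on both sides; inactive means the rest.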 The list shows a part of the results.
Test: Components of the Cytosolic LPS Sensing Pathway: Gene Identification via Genome-wide siRNA Screen;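 further: robust z of the log signal after scaling to non-targeting control siRNA wells of the plate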
Settings: RAW264.7 macrophages, IL-1a HTRF, actives lie on both sides, screened at 100 nM (by protocol), cells primed 5 h with Pam3CSK4 first
Outline: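 Three distinct siRNAs per gene were tested singly at 100 nM in RAW264.7 macrophages. Following Pam3CSK4 priming and 24 hour LipidA transfection, IL-1a secretion was read by HTRF.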
For GCAAAAACGCAAGAUCUUCTT against Zfand2b, the z-score was inactive: -0.201. In the case of GGCUUUUGAUCUUAUUGAGTT against Kpna1, the z-score is reported as inactive: -1.04. With GCUCAAGUUAAUCUGUUGUTT against Ywhae the z-score was inactive: 0.962. In the case of CCUCAAUGGUAGGUAAUUUTT against Olfr1090, the z-score is reported as inactive: -0.466. In the case of GGAGAAGGAUUAUACCAGUTT against Rfesd, the z-score is reported as active: 2.2. With GGACAGGAGAGUUAUUUAATT against Btla the z-score was inactive: 1.02. For GGAGCGAUUUGAUGAUAUGTT against Ppp4r3a, the z-score was inactive: -0.755. With GCCACUAAGAAUCAGACAUTT against Ryr1 the z-score was inactive: -0.382. For GGAUGCUGUUUCCAAAGAATT against Ssr3, the z-score was inactive: 0.61. With GAUCCAGGAUAAAGAGGGCTT against Ubb the z-score was inactive: -0.0113. With “GGAGAUUGAGGAAUCAUCATT against Vmn2r-ps54” the z-score was inactive: -1.24. In the case of GGGUGACCCAGAAGAAAUCTT against Gcnt1, the z-score is reported as inactive: -0.793. In the case of GCCUCAUCGUCAUCGCCAATT against Gpbar1, the z-score is reported as inactive: -0.897. For GGCUCUAUAUCCAGCAGCATT against Srst, the z-score was inactive: -1.1. For GGACUAGAAACAAUGUCAATT against St3gal6, the z-score was inactive: -1.56. In the case of GGUAUGGAUCUUUCUGAUATT against Rif1, the z-score is reported as inactive: -1.07. With GGGAUAUCAAAGCAAAAAUTT against Rab8a the z-score was inactive: -0.578. In the case of GGGAAACAUAUGGUUUUGCTT against Iqcj, the z-score is reported as inactive: 1.02. With GGACCUGAUCUUCAGGUUUTT against Gpc5 the z-score was inactive: 1.73. For GCAGACGGUGGCAUAUUCUTT against Rfx4, the z-score was inactive: 0.247. With GGUGGUAUUGAAAAGGAAATT against Ankrd13b the z-score was inactive: 0.767. With GCUUGUUACAGAUGAAUGUTT against Nt5c3 the z-score was inactive: 1.46. With GGUCAGACAGAGUCACUGATT against Magea2 the z-score was inactive: 0.742. In the case of GGCUUCUUGUCCAUGCAAATT against N4bp3, the z-score is reported as inactive: -0.579. In the case of GGCAGAAUUUUCCAACUGATT against Spata20, the z-score is reported as inactive: 0.344. In the case of GGCAUUUUCGUAUAGUUACTT against B3gnt9, the z-score is reported as inactive: 0.81. With GGGAAUUUGGUAUCAAUUUTT against Epgn the z-score was inactive: 1.7. With GCAGGGUACUGGCUAAAUATT against Cd40 the z-score was active: 2.93. For CCUGACCAUACUAAUAAAUTT against Rala, the z-score was inactive: -1.06. In the case of GGGUCUAGCAGAUUACAAATT against Gjb6, the z-score is reported as inactive: 1.38. For CCUCAGUUUGAACUUGAGATT against Traf3ip2, the z-score was inactive: 0.723. In the case of GGAUGUCUUACCAUGGGAATT against Bhlha9, the z-score is reported as inactive: 0.193. With GCUUACAGCACAACAACAUTT against Ubap1 the z-score was inactive: -0.00967. In the case of GGGAAGGUGGCCUACAUCATT against Necap2, the z-score is reported as inactive: 1.82. For GUUUCAAAUCCCAGAGAAGTT against Defb7, the z-score was inactive: -0.0344. For CGAGGCCUGGAAGGACUUUTT against Klhl8, the z-score was inactive: 0.0877. In the case of GGCAGGCAAACAGUGAUCATT against Lsm4, the z-score is reported as inactive: -0.909. For GGUCCUACUUACUACUGCCTT against Fam83h, the z-score was inactive: 0.265. For GGAAGAAGAUGGUUCCGAATT against Ankzf1, the z-score was inactive: 0.611. In the case of GCUUAGUAAUGCUAACAUUTT against Parg, the z-score is reported as inactive: 1.21. In the case of GGAUGAAGCAUUUAUUCCATT against Bmpr1a, the z-score is reported as inactive: -0.542. For CCUUCUUGCUUCAGAGCAGTT against Slc34a3, the z-score was inactive: 1.97. In the case of GGGAAUAAAGUGUUUGUUUTT against Phf20l1, the z-score is reported as inactive: 0.0731. In the case of GCGUGCUCUUUUUAACUACTT against Septin10, the z-score is reported as inactive: 1.06. In the case of GGACCAGAACCGUUACUUATT against Bet1l, the z-score is reported as inactive: 0.341. For GGCUAGGACCUAUACCAUUTT against Aprt, the z-score was inactive: 1.14. For GGAUUCUUGAAGCUGUUUUTT against Tmbim4, the z-score was inactive: -1.06. For GGCGGAAGAGAAAGACAGCTT against Tle3, the z-score was inactive: 1.39. For GGUAUUAUGGCUGUGGUCUTT against As3mt, the z-score was inactive: -1.35. For GCAACACACUGCUUCCUGGTT against Tmem19, the z-score was inactive: -1.38. For GGCUGUUUACACGUUAGUGTT against Diablo, the z-score was inactive: -0.0319. For CCUUUUGUUAGUGAGUUAGTT against Ywhag, the z-score was inactive: 0.269. With “GGGAAUCUGGCCAUACUAGTT against 1700022I11Rik” the z-score was inactive: 0.268. In the case of GGGCUUGAUUUGAUCCUGGTT against Nt5el, the z-score is reported as inactive: -0.99. For GCUUAGACAACGACAUUUCTT against Mcoln3, the z-score was active: 2.04. In the case of GAUUGUGUCGUCCAUUACATT against Tuba3a, the z-score is reported as inactive: -0.546. With GGAUCACCACUACUUUAAATT against Cops5 the z-score was inactive: -0.161. For GGUUCCUGAACAUCCUUUUTT against Hyal3, the z-score was inactive: -0.166. In the case of GGAAACCUACCGUUACCUATT against Kcnj5, the z-score is reported as inactive: -0.181. With CCCUCAUUUACUCUAGUAATT against Defb12 the z-score was inactive: 0.714. With GGUCAGAAUGAAUUCAGUUTT against Il10rb the z-score was inactive: 1.23. With GGUCUUCUUUGAUGUGAGGTT against Ppic the z-score was inactive: -0.832. For CCAUGUGCUGUGCACUACGTT against Chst14, the z-score was inactive: 0.358. In the case of GCUCAAGGUCUCAUUUUUATT against Il18bp, the z-score is reported as inactive: -0.463. In the case of GGUCUUCAAAGACAUCAGCTT against F11, the z-score is reported as inactive: -0.156. For CCAAUCGGUGAUCAAGAAATT against Tfap2e, the z-score was inactive: -0.525. For GCGAACCUGCUCACCCUUUTT against Grhl3, the z-score was inactive: 0.68. In the case of CCCAUAAUGAUAUAAACCUTT against Ulbp1, the z-score is reported as inactive: 0.426. In the case of GCAAUUGAAAGCUUCGCCCTT against Mcf2l, the z-score is reported as inactive: -0.423. With UGUAAUCACCCACUUUUUCTT against Olfr384 the z-score was inactive: 1.93. With GGGAGCUUUGAAGAGGCUGTT against Olfr130 the z-score was inactive: -0.604. With GCUGAAUCAUUGAUUUACCTT against Tmem183a the z-score was inactive: 0.689. For GGACGAAAUCUUGUCUGAUTT against Atg4b, the z-score was active: 2.59. With GGAUCCAGUCUAAUAAGAATT against Abcb1a the z-score was inactive: -0.35. With CCUCGUAGGGCCUAUGGUATT against Cyth4 the z-score was active: -2.17. With GCCACCAGUGCUUUUCAAGTT against Ap5b1 the z-score was inactive: -0.41. For GGGAGCAGAUUUUAAGAGUTT against Rala, the z-score was inactive: 0.763. For GGAGAUGAAGUUCCAAAAGTT against Ifi27l2a, the z-score was inactive: 1.54. For CCAGUGUUUACUCAAACAGTT against Snai2, the z-score was inactive: 0.792. With GCAUGUUUCCCUACUAUGATT against Dcaf8l the z-score was inactive: -1.57. In the case of GGUAUCAUCUAUAGAGACUTT against Prkch, the z-score is reported as inactive: -0.265. With GGACAAGGCAGUGUUUCCATT against Sost the z-score was inactive: 0.878. With GGCCAGCAGAUAUAUAGAGTT against Ubxn8 the z-score was inactive: 0.438. With GGUGACAACUGACUUCGAATT against Pramel32 the z-score was inactive: 0.321. For CCAGAUUCUAAUACGUACATT against Sec63, the z-score was inactive: 0.436. In the case of CCUGUACCCGAACAUACCATT against Fabp12, the z-score is reported as inactive: -1.06. For GCCCGAAAAAGAGAACUGATT against Wbp11, the z-score was inactive: 0.056. For GCUUUAGGUCCAAUAAAAUTT against Wdr53, the z-score was inactive: -0.87. With GCAACUCUAGUGUAUGGGATT against Slc39a4 the z-score was inactive: 0.762. In the case of GGUGGAAUUUUCAACUUACTT against Nkx3-1, the z-score is reported as active: 5.36. For GGAGUGCAAGGACUUUGUGTT against Ift20, the z-score was inactive: -0.738. With GCUUGGCUUCAGCAUAUGCTT against Phox2b the z-score was inactive: -0.867. For GCUGACCAUUUUGAUGCCCTT against Adi1, the z-score was inactive: -0.0381. In the case of GGAGACCUUCAACUUGUACTT against Ephb1, the z-score is reported as inactive: -0.134. With GGCGUAGGUCACCACAUUGTT against Spin2c the z-score was inactive: 1.51. In the case of GCACAGACUGAGAGGAAAATT against Mog, the z-score is reported as inactive: 0.0718. For GGCUCAGCAUGUGUCAUACTT against Slc25a39, the z-score was inactive: 1.77. For GCACAUGUGUUUAUACAUUTT against Sfxn3, the z-score was inactive: -0.556. For GGAGUUGGAGGAAAGAAUUTT against Prl3b1, the z-score was inactive: 0.655. With GGCCAUUUUGCCUAAGAAGTT against Fam207a the z-score was inactive: -0.757. In the case of GUUUAUAGGUAACUGUCACTT against Defb11, the z-score is reported as inactive: -0.0983. With CGGUUAGAGCAUUAAGUUCTT against Lias the z-score was inactive: 0.817. In the case of GCCACAUCAGAUGAAGUCCTT against Ppm1e, the z-score is reported as active: -2.26. With GGAUACUCUCAGGACGUGATT against Ncbp2 the z-score was active: -2. In the case of GCUUUGAAGUUCCUCAUGCTT against Otulinl, the z-score is reported as inactive: 0.469. In the case of GGGAGUAAAAAGGUGAUCATT against Gfra2, the z-score is reported as inactive: -0.924. For GGGAGGUGAAACUGAGAAUTT against Mcpt4, the z-score was inactive: 1.01.
